Results are given in words; binding and its absence hold for the method and conditions named. Binding seen in cells or lysates may run through a third protein. Here binding means that the protein was enriched with, or labelled near, the bait; the list need not be complete.
What was measured:
[1] = molecular target: WT menin-GFP (human) (UniProt O00255); test: affinity purification with mass spectrometry; GFP-Trap agarose beads against control agarose beads; 3 mg cytoplasmic extract of HeLa cells induced with doxycycline for 24 h; binding buffer 20 mM Hepes-KOH pH 7.9, 300 mM NaCl, 20% glycerol, 0.1% NP-40; 4 °C, 1 h; triplicates; label-free LFQ and iBAQ, FDR 0.01, s0 2
[2] = molecular target: menin E255K-GFP (human) (UniProt O00255); test: as above
[3] = molecular target: menin E359K-GFP (human) (UniProt O00255); test: as above
[4] = molecular target: menin E366D-GFP (human) (UniProt O00255); test: as above
[5] = molecular target: menin E408Q-GFP (human) (UniProt O00255); test: as above
[6] = molecular target: menin L168P-GFP (human) (UniProt O00255); test: as above
[7] = molecular target: menin L264P-GFP (human) (UniProt O00255); test: as above
[8] = molecular target: menin Q141R-GFP (human) (UniProt O00255); test: as above
[9] = molecular target: menin R52G-GFP (human) (UniProt O00255); test: as above
[10] = molecular target: WT menin-GFP (human) (UniProt O00255); test: affinity purification with mass spectrometry; GFP-Trap agarose beads against control agarose beads; 1 mg nuclear extract of HeLa cells induced with doxycycline for 24 h; binding buffer 20 mM Hepes-KOH pH 7.9, 300 mM NaCl, 20% glycerol, 0.1% NP-40; 4 °C, 1 h; triplicates; label-free LFQ and iBAQ, FDR 0.01, s0 2
[11] = molecular target: menin E366D-GFP (human) (UniProt O00255); test: as above
[12] = molecular target: menin E408Q-GFP (human) (UniProt O00255); test: as above
[13] = molecular target: menin R322H-GFP (human); test: as above

Chains of the proteins cited; added tags and fusions are not shown. Residues count along the entry.
UniProt P54727: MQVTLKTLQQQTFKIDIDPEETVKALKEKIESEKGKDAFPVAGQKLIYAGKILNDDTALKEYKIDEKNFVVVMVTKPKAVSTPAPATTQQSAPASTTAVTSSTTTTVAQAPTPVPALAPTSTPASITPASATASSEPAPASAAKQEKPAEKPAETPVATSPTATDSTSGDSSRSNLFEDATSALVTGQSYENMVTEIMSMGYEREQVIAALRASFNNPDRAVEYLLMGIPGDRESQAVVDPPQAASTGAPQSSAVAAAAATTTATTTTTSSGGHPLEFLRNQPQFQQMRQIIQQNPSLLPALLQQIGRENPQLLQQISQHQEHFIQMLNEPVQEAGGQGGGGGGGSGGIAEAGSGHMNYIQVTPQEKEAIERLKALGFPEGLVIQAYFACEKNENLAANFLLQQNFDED
UniProt Q9UBL3: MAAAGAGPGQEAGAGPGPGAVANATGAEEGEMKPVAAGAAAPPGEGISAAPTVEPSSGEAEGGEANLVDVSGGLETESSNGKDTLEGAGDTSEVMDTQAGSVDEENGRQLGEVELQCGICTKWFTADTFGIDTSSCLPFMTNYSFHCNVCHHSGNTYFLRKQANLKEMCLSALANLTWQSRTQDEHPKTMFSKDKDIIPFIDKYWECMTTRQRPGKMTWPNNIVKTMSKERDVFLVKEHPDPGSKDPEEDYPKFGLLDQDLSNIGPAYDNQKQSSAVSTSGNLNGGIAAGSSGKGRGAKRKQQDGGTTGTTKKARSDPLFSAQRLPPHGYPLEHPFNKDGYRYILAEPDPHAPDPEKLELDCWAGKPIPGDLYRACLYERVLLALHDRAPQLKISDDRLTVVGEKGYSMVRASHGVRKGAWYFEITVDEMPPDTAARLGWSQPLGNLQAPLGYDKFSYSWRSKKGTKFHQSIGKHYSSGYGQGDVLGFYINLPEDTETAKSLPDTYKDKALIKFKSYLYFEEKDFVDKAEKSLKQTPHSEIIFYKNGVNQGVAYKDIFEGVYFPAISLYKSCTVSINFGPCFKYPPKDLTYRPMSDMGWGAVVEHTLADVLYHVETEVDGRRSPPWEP
UniProt P25685: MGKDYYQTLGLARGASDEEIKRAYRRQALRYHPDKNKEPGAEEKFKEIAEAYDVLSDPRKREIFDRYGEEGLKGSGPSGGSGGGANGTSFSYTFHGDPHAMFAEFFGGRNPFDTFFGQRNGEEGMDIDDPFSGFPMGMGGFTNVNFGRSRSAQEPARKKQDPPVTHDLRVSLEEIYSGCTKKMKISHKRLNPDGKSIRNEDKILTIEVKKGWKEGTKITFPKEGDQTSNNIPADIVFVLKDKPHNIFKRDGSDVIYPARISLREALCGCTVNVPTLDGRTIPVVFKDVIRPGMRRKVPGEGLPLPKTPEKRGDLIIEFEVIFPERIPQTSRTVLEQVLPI
UniProt P01100: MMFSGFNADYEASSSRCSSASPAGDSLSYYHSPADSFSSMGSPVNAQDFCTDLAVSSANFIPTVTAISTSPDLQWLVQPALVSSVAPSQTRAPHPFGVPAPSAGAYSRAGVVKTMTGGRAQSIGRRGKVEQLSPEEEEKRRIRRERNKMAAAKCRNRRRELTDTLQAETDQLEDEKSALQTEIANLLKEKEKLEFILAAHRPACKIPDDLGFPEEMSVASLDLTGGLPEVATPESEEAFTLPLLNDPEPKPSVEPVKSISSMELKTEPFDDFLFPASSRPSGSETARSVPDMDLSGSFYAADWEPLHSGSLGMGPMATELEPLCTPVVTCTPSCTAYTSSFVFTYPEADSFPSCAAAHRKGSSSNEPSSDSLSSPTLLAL
UniProt Q8TEM1, residues 27-1887: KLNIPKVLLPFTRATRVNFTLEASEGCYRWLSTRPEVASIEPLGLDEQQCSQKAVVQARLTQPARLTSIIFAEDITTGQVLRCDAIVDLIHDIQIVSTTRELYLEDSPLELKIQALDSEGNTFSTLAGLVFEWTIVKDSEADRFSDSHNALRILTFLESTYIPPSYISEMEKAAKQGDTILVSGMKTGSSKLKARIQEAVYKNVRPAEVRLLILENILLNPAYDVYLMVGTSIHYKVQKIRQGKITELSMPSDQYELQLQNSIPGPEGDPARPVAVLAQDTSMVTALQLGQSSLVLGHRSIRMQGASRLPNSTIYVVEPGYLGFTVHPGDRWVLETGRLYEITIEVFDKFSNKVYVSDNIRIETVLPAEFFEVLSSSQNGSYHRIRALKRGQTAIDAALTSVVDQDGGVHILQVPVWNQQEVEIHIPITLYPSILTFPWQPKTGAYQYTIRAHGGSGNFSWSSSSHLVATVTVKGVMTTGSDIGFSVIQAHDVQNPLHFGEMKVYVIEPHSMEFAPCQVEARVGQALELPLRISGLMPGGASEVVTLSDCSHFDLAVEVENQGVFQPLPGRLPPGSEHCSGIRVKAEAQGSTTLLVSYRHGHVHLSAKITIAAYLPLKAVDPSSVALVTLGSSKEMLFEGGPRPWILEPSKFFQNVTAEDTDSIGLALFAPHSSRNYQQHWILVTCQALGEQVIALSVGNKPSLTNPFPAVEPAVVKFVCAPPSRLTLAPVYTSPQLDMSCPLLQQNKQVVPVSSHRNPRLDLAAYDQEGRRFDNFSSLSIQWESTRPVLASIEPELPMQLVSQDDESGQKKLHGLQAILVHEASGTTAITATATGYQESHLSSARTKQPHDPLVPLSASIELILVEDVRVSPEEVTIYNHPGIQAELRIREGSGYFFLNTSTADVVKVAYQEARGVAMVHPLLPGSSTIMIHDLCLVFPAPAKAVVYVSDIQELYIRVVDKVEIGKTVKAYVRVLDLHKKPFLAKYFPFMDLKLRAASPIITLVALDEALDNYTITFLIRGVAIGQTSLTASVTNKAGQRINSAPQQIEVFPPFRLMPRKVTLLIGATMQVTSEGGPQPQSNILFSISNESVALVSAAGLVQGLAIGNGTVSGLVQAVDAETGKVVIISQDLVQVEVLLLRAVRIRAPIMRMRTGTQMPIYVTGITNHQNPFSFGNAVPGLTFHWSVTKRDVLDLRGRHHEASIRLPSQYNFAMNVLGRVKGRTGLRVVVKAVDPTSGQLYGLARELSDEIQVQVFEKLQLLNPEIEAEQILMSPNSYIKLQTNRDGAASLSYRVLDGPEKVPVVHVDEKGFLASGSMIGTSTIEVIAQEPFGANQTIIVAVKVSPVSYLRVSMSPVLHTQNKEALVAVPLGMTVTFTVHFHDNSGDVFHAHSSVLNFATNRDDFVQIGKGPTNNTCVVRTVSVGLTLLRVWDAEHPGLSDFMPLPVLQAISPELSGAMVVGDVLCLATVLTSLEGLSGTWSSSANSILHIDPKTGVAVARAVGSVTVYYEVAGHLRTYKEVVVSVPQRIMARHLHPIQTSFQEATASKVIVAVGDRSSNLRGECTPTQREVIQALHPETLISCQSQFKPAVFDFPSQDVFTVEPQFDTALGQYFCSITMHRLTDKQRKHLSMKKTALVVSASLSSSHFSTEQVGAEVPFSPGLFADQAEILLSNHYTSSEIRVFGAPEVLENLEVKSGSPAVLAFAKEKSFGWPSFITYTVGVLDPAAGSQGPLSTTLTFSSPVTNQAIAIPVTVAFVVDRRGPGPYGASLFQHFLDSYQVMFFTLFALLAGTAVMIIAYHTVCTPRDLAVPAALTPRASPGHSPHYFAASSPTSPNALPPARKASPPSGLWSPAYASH
UniProt O95816: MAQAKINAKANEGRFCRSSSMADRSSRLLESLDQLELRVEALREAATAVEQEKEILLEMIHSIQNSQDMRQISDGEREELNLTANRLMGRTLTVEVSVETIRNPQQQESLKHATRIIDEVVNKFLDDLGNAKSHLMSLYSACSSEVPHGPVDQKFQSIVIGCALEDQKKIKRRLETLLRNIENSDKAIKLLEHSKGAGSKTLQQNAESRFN
UniProt P11142: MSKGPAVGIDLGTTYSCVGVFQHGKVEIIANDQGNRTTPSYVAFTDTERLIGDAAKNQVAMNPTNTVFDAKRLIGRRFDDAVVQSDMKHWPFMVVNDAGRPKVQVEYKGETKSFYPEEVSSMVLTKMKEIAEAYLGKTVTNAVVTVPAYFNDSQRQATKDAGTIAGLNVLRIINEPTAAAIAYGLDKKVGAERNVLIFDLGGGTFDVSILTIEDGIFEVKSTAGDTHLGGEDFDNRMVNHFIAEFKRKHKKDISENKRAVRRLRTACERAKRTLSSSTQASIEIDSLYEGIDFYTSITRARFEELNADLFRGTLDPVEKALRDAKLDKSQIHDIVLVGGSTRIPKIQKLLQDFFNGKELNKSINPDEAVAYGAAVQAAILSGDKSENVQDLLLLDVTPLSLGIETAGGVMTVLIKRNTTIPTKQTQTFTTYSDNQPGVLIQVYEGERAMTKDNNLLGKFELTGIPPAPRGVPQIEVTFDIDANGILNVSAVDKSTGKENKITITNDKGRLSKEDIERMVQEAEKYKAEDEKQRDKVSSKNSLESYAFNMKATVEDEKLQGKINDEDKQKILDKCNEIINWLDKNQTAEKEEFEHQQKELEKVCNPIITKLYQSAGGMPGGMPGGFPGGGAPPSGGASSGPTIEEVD
UniProt O75475: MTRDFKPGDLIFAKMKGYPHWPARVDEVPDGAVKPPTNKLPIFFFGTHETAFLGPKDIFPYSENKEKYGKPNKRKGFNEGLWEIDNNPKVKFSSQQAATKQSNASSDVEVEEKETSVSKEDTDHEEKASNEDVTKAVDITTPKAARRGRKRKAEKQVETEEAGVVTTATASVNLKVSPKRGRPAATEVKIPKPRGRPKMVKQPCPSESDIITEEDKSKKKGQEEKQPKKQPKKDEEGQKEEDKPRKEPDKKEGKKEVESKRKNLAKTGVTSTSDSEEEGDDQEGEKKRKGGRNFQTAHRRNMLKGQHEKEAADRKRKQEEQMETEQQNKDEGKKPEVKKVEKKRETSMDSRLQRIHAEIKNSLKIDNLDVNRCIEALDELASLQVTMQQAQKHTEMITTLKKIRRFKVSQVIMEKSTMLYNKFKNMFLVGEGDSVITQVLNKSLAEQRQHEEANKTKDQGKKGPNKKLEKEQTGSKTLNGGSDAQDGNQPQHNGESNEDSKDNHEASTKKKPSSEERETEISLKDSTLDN
UniProt Q15291: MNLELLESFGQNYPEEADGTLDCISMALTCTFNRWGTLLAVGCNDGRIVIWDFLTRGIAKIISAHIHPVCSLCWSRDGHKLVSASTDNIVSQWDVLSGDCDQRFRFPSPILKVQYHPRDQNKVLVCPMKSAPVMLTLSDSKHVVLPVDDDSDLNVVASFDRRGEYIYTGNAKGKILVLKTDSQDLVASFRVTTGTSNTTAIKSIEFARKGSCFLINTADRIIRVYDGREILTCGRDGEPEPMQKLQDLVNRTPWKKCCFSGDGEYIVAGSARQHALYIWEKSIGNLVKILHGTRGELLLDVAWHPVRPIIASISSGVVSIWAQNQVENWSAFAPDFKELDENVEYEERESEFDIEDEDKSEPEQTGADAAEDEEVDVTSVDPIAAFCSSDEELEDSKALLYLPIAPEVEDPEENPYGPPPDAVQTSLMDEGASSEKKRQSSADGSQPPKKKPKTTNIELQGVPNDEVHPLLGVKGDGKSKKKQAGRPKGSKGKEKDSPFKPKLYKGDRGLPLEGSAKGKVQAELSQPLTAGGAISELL
UniProt P54725: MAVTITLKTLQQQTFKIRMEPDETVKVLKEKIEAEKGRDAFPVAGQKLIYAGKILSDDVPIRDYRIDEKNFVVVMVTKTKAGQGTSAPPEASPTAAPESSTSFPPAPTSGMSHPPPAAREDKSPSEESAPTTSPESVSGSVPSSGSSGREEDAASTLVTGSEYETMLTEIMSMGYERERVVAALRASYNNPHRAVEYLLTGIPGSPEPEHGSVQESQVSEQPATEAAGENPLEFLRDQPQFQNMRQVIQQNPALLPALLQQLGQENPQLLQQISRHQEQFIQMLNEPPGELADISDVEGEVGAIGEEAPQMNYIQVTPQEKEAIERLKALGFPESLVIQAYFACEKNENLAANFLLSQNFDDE

Measured: binding

RAD23B (from UniProt P54727 1-409)
not listed: [10] | [11] | [12] | [13]
binds: all other assays above

ASH2L (from UniProt Q9UBL3 1-628)
binds: [10] | [11] | [12]

DNAJB1 (from UniProt P25685 1-340)
not listed: [10] | [11] | [12] | [13]
binds: all other assays above

FOS (from UniProt P01100 1-380)
binds: [10] | [11] | [12]

NUP210 (from UniProt Q8TEM1 27-1887)
binds: [4]

BAG2 (from UniProt O95816 1-211)
not listed: [10] | [11] | [12] | [13]
binds: all other assays above

HSPA8 (from UniProt P11142 1-646)
not listed: [10] | [11] | [12] | [13]
binds: all other assays above

PSIP1 (from UniProt O75475 1-530)
binds: [10] | [11] | [12]

RBBP5 (from UniProt Q15291 1-538)
binds: [10] | [11] | [12]

RAD23A (from UniProt P54725 1-363)
not listed: [10] | [11] | [12] | [13]
binds: all other assays above

VCP (from UniProt P55072 1-806)
not listed: [10] | [11] | [12] | [13]
binds: all other assays above

B1: OGT (enzyme, UniProt O15294 1-1046)
chain: MASSVGNVADSTEPTKRMLSFQGLAELAHREYQAGDFEAAERHCMQLWRQEPDNTGVLLLLSSIHFQCRRLDRSAHFSTLAIKQNPLLAEAYSNLGNVYKERGQLQEAIEHYRHALRLKPDFIDGYINLAAALVAAGDMEGAVQAYVSALQYNPDLYCVRSDLGNLLKALGRLEEAKACYLKAIETQPNFAVAWSNLGCVFNAQGEIWLAIHHFEKAVTLDPNFLDAYINLGNVLKEARIFDRAVAAYLRALSLSPNHAVVHGNLACVYYEQGLIDLAIDTYRRAIELQPHFPDAYCNLANALKEKGSVAEAEDCYNTALRLCPTHADSLNNLANIKREQGNIEEAVRLYRKALEVFPEFAAAHSNLASVLQQQGKLQEALMHYKEAIRISPTFADAYSNMGNTLKEMQDVQGALQCYTRAIQINPAFADAHSNLASIHKDSGNIPEAIASYRTALKLKPDFPDAYCNLAHCLQIVCDWTDYDERMKKLVSIVADQLEKNRLPSVHPHHSMLYPLSHGFRKAIAERHGNLCLDKINVLHKPPYEHPKDLKLSDGRLRVGYVSSDFGNHPTSHLMQSIPGMHNPDKFEVFCYALSPDDGTNFRVKVMAEANHFIDLSQIPCNGKAADRIHQDGIHILVNMNGYTKGARNELFALRPAPIQAMWLGYPGTSGALFMDYIITDQETSPAEVAEQYSEKLAYMPHTFFIGDHANMFPHLKKKAVIDFKSNGHIYDNRIVLNGIDLKAFLDSLPDVKIVKMKCPDGGDNADSSNTALNMPVIPMNTIAEAVIEMINRGQIQITINGFSISNGLATTQINNKAATGEEVPRTIIVTTRSQYGLPEDAIVYCNFNQLYKIDPSTLQMWANILKRVPNSVLWLLRFPAVGEPNIQQYAQNMGLPQNRIIFSPVAPKEEHVRRGQLADVCLDTPLCNGHTTGMDVLWAGTPMVTMPGETLASRVAASQLTCLGCLELIAKNRQEYEDIAVKLGTDLEYLKKVRGKVWKQRISSPLFNTKQYTMELERLYLQMWEHYAAGNKPDHMIKPVEVTESA
binds: [10] | [12]

B2: HCFC2 (protein, UniProt Q9Y5Z7 1-792)
chain: MAAPSLLNWRRVSSFTGPVPRARHGHRAVAIRELMIIFGGGNEGIADELHVYNTATNQWFLPAVRGDIPPGCAAHGFVCDGTRILVFGGMVEYGRYSNELYELQASRWLWKKVKPHPPPSGLPPCPRLGHSFSLYGNKCYLFGGLANESEDSNNNVPRYLNDFYELELQHGSGVVGWSIPVTKGVVPSPRESHTAVIYCKKDSGSPKMYVFGGMCGARLDDLWQLDLETMSWSKPETKGTVPLPRSLHTASVIGNKMYIFGGWVPHKGENTETSPHDCEWRCTSSFSYLNLDTTEWTTLVSDSQEDKKNSRPRPRAGHCAVAIGTRLYFWSGRDGYKKALNSQVCCKDLWYLDTEKPPAPSQVQLIKATTNSFHVKWDEVSTVEGYLLQLSTDLPYQAASSDSSAAPNMQGVRMDPHRQGSNNIVPNSINDTINSTKTEQPATKETSMKNKPDFKALTDSNAILYPSLASNASNHNSHVVDMLRKNEGPHTSANVGVLSSCLDVRTVIPETSVSSTVSSTQTMVTQQTIKTESSSTNGAVVKDETSLTTFSTKSEVDETYALPATKISRVETHATATPFSKETPSNPVATVKAGERQWCDVGIFKNNTALVSQFYLLPKGKQSISKVGNADVPDYSLLKKQDLVPGTGYRFRVAAINGCGIGPFSKISEFKTCIPGFPGAPSAVRISKNVEGIHLSWEPPTSPSGNILEYSAYLAIRTAQIQDNPSQLVFMRIYCGLKTSCIVTAGQLANAHIDYTSRPAIVFRISAKNEKGYGPATQVRWLQGNNKKAPLN
binds: [10] | [11] | [12] | [13]
